Measured values taken from PMC9443474.
These are yes or no findings as the source states them, for the method shown. In cells and extracts the contact can be indirect. Some results given as binding are weak or reduced against the parent protein; the word gives no strength. For part of these data: Sequences can lack the tags named with a protein.

By UniProt entry, the sequences of proteins in these tests, tags left out.
UniProt Q01105: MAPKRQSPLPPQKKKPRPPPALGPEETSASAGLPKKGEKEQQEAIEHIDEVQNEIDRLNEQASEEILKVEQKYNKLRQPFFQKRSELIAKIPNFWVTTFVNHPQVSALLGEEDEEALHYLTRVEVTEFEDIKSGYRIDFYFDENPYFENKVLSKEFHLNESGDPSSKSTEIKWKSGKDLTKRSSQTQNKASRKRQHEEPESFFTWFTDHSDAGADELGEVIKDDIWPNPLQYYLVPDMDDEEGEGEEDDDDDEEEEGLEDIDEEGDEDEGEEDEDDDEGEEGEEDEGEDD

T1: endogenous TRIM4 (human (endogenous in MCF7)) (UniProt Q9C037)
T1 sequence: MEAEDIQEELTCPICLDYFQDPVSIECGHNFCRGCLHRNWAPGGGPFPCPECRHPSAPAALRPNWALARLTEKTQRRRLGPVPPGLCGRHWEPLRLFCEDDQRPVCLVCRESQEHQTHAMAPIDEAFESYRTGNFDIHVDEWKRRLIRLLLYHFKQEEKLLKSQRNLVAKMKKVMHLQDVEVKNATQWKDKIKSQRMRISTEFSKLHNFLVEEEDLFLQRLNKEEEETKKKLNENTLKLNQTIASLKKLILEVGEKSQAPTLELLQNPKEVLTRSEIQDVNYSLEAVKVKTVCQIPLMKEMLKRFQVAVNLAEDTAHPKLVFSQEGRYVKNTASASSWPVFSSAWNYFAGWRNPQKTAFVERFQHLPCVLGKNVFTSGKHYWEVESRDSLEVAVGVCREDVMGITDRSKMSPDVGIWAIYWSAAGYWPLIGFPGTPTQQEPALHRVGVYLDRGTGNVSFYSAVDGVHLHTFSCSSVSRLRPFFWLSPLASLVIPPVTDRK

T2: TRIM4 (bait of the mass spectrometry-based formaldehyde cross-linking assay) (human (in MCF7 cells)) (UniProt Q9C037)
T2 sequence: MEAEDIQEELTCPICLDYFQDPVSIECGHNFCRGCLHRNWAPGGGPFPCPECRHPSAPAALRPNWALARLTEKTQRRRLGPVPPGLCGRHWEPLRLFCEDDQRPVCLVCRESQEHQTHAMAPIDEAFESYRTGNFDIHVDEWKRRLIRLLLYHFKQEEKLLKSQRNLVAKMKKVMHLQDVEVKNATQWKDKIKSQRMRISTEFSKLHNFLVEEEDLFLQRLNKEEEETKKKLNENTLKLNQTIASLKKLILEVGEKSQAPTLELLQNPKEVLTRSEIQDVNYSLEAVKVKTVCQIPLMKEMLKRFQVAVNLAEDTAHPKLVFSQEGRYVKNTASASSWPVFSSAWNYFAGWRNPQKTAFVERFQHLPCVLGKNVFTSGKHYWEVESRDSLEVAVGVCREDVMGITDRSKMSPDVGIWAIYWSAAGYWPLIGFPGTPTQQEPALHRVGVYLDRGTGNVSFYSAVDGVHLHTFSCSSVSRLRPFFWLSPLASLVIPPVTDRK


Assays:
[1] = target: T1, endogenous TRIM4 (human (endogenous in MCF7)); assay: co-IP; endogenous proteins in MCF7 cell lysates; IP with anti-TRIM4 or anti-SET, immunoblot
[2] = target: T2, TRIM4 (bait of the mass spectrometry-based formaldehyde cross-linking assay) (human (in MCF7 cells)); assay: cross-linking; mass spectrometry-based formaldehyde cross-linking assay in MCF7 cells; candidate TRIM4 binding proteins identified by mass spectrometry
Myc-SET (wild-type SET) = Myc-SET (wild-type SET) (UniProt Q01105); assay: co-IP; HEK293T cells transfected with Flag-TRIM4 (WT or truncation mutants) and Myc-tagged SET (WT or truncation mutants) or H3.3C; lysates 48 h after transfection, IP with anti-Myc or anti-Flag and protein A/G agarose for 8 h, beads washed five times with NP-40 buffer, immunoblot

| binding [1] | binding [2] | binding (Myc-SET (wild-type SET)) | Molecule |
| --- | --- | --- | --- |
| binds | binds |  | endogenous SET (from UniProt Q01105 1-290) |
|  |  | binds | Flag-TRIM4 (wild-type TRIM4) (protein, UniProt Q9C037 1-500) MEAEDIQEELTCPICLDYFQDPVSIECGHNFCRGCLHRNWAPGGGPFPCPECRHPSAPAALRPNWALARLTEKTQRRRLGPVPPGLCGRHWEPLRLFCEDDQRPVCLVCRESQEHQTHAMAPIDEAFESYRTGNFDIHVDEWKRRLIRLLLYHFKQEEKLLKSQRNLVAKMKKVMHLQDVEVKNATQWKDKIKSQRMRISTEFSKLHNFLVEEEDLFLQRLNKEEEETKKKLNENTLKLNQTIASLKKLILEVGEKSQAPTLELLQNPKEVLTRSEIQDVNYSLEAVKVKTVCQIPLMKEMLKRFQVAVNLAEDTAHPKLVFSQEGRYVKNTASASSWPVFSSAWNYFAGWRNPQKTAFVERFQHLPCVLGKNVFTSGKHYWEVESRDSLEVAVGVCREDVMGITDRSKMSPDVGIWAIYWSAAGYWPLIGFPGTPTQQEPALHRVGVYLDRGTGNVSFYSAVDGVHLHTFSCSSVSRLRPFFWLSPLASLVIPPVTDRK |
